Results are given in words; binding and its absence hold for the method and conditions named. In cells and extracts the contact can be indirect. Here binding means that the protein was enriched with, or labelled near, the bait; the list need not be complete.
Target: Myc-tagged ClHst1 (product of CLUG_01277, Sir2 ortholog of Clavispora lusitaniae) (Clavispora lusitaniae) (UniProt C4XZ95)
Test: affinity purification with mass spectrometry; myc-tagged ClHst1 partially purified from clarified C. lusitaniae lysate on anti-c-myc agarose resin, overnight at 4°C; lysis buffer 50 mM HEPES-KOH pH 7.5, 0.5 M NaCl, 10% glycerol, 0.5% NP-40, 1 mM EDTA; lysate treated with heparin and benzonase; SDS-PAGE gel slices analysed by LC-MS/MS; untagged strain as negative control

Sequences of proteins named here, by UniProt entry; tags and fusion partners are left off. A change or cut given only in a name is not applied to a line headed by its entry.
UniProt C4Y434: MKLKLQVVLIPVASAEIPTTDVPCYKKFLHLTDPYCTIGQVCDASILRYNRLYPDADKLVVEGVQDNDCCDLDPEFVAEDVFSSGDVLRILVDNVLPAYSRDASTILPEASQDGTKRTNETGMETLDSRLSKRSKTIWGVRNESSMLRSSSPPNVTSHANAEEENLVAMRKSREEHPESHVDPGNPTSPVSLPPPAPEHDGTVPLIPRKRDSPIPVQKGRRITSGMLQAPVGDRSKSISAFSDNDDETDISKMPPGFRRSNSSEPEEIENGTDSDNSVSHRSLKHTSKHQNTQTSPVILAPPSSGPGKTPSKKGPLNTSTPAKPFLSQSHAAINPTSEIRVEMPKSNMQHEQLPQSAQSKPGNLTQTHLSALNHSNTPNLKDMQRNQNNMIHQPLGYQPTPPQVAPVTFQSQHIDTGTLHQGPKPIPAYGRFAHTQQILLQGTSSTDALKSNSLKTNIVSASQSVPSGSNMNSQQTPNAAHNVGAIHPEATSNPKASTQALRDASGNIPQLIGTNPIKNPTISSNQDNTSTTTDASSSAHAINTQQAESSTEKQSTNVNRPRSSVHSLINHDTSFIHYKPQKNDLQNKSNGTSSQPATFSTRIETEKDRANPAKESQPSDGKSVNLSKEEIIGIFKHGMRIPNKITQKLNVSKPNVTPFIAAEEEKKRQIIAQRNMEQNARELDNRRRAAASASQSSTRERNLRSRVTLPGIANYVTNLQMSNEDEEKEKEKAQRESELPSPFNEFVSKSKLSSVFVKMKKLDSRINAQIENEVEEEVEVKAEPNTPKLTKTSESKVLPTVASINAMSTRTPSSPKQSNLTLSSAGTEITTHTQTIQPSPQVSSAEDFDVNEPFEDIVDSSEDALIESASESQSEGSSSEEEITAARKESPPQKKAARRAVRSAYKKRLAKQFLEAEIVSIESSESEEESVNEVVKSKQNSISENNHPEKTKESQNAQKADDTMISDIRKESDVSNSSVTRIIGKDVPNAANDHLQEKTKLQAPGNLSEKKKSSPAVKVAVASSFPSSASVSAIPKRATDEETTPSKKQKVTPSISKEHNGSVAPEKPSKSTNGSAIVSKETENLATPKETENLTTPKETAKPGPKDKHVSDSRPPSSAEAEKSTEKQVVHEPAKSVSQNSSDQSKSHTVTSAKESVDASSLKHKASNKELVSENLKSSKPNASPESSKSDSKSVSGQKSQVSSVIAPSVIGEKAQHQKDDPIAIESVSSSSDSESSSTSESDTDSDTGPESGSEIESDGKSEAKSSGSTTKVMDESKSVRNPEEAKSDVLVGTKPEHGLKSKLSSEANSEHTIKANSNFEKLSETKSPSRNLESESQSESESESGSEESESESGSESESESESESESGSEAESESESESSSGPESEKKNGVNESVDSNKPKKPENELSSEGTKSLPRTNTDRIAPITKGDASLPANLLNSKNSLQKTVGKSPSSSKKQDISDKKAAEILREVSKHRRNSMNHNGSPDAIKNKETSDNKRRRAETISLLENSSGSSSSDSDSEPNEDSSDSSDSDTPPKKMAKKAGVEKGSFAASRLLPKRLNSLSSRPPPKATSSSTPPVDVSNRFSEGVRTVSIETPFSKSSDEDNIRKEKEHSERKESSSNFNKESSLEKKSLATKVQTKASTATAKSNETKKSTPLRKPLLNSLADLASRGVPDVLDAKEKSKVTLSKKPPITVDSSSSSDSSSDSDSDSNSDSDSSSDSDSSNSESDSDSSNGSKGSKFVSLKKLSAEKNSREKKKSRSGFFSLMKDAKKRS

ClNet1 (product of CLUG_02406, similar to ScNet1) (from UniProt C4Y434)
binding: binds

Reference: article PMC3814328
